Source: PubChem BioAssay AID1347075 (National Center for Advancing Translational Sciences (NCATS), 2019)
The campaign covered roughly 400,000 compounds. About 5,500 (1.4%) were called active. The inconclusive results got no clear call from the source; some entries with a clear call stand among them for comparison. The call rests on the fitted dose curve; in most records, active means well fitted cell-killing curve with a large enough effect; inconclusive means small, poorly fitted or top-dose-only effect, or effect the other way; inactive means flat fitted curve, though single readings scatter. Where the call is inconclusive, the potency comes from a doubtful curve fit.
On the % scale 0 is the no-effect control and ±100 the full control effect; potency means the concentration at half of the fitted maximal effect.

Test: qHTS assay for MDR1-selective chemotherapeutics: Primary screen using the parental adenocarcinoma cell KB-3-1; further: nearly all actives have a fitted effect of over 60% in size
Details: KB-3-1 viability, CellTiter-Glo ATP luminescence, 72 h; activity change, negative = cytotoxic: at 46.1 µM (top of the series)
Outline: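 Luminescent ATP read-out (CellTiter-Glo) measures survival of drug-naive KB-3-1 cells after 72 h compound exposure at 37 °C. Titration series was screened from lowest to highest concentration, with DMSO vehicle plates as background controls.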
For `COc1ccccc1-c1cc(C(=O)Nc2ccc(F)cc2F)no1`, the “activity change, negative = cytotoxic” value was inactive: -5.77%.
For `O=C(Cc1cc(=O)[nH][nH]1)N/N=C/c1cccc(Cl)c1Cl`, the activity change, negative = cytotoxic was inconclusive: -79.9%.
With `OC[C@@H]1CN(Cc2ccc3c(c2)OCO3)C[C@H](n2cnc3c(NC4CCCC4)ncnc32)O1` the “activity change, negative = cytotoxic” value was inactive: 0%.
In the case of `FC(F)(F)c1cccc(Cc2noc(CN3CCCC(OCc4ccccn4)C3)n2)c1` (stereo not drawn), the Potency is reported as inconclusive: 0.206 µM [cytotoxic, full curve].
With `CC(C)N(Cc1nc(-c2ccc3c(c2)OCO3)no1)Cc1nccn1C` the “activity change, negative = cytotoxic” value was inactive: -10%.
In the case of `O=S(=O)(NC1CCCCC1)c1cccc(-c2nnc(-c3ccccc3)o2)c1`, the Potency is reported as inconclusive: 29.1 µM [cytotoxic, single point].
In the case of `COc1cc(C2C=C(c3cccs3)Nc3ncnn32)cc(OC)c1OC` (stereo not drawn), the Potency is reported as active: 1.03 µM.
In the case of `Cn1nnnc1SCCNC(=O)C1CCC(=O)N(Cc2ccccc2F)C1` (stereo not drawn), the Potency is reported as inconclusive: 0.0116 µM [cytotoxic, full curve].
In the case of `CCOc1ccc(-c2cc(C(=O)N3CCN(S(=O)(=O)c4cc(Cl)ccc4OC)CC3)[nH]n2)cc1`, the “activity change, negative = cytotoxic” value is reported as inactive: 0%.
For `CCOc1ncccc1C(=O)Nc1ccc2c(c1)OCO2`, the Potency was inconclusive: 29.1 µM [rising, partial curve, poor fit].
With `Cc1cc2c(NC3CCCCC3)ncnc2s1` the Potency was inconclusive: 16.4 µM [cytotoxic, partial curve, poor fit].
For `Cn1c(NCC2CCCCC2)nc2cc(-c3ccsc3)sc2c1=O`, the Potency was active: 18.4 µM.
In the case of `Clc1nc(NC2CCCCC2)c2cn[nH]c2n1`, the Potency is reported as inconclusive: 0.0231 µM [cytotoxic, full curve].
With `COc1ccc(N2C(=O)CC2(/C=C/c2ccccc2OC)C(=O)NC2CCCC2)cc1` (stereo not drawn) the Potency was inconclusive: 29.1 µM [cytotoxic, single point].
In the case of `COc1ccc(C(=O)Nc2cnn(Cc3ccc(Cl)cc3)c2)cc1OC`, the Potency is reported as active: 5.8 µM.
For `CC(C)c1ccc(NC(=O)CN2CCN(C(=O)C3CCCO3)CC2)cc1` (stereo not drawn), the “activity change, negative = cytotoxic” value was inactive: 3.31%.
In the case of `CCOC(=O)C(=CNc1ccccc1Cl)C(=O)OCC`, the “activity change, negative = cytotoxic” value is reported as inactive: 2.55%.
With `O=C(Cc1cc(=O)[nH]c(=O)[nH]1)N1CCN(C(=O)c2ccco2)CC1` the activity change, negative = cytotoxic was inconclusive: 37.1%.
In the case of `CSc1ccccc1OCc1cc(C(=O)N2CCN(C3CCCC3)C(=O)C2)no1`, the “activity change, negative = cytotoxic” value is reported as inactive: 0.581%.
With `COc1ccccc1N1CCN(C(=O)c2ccc3[nH]c(C)c(C)c3c2)CC1` the Potency was active: 1.64 µM.
For `COc1ccc(C(=O)c2ccccc2)c2c(O)ccc(C(=O)c3ccccc3)c12`, the Potency was inconclusive: 18.4 µM [cytotoxic, partial curve, poor fit].
In the case of `Cc1ccc(C)c(N2CCN(C(=O)Cn3ncc4ccsc4c3=O)CC2)c1`, the Potency is reported as active: 16.4 µM.
For `C=CCN1c2ccccc2[C@]23C[C@@H](C(=O)OC)N(C(=O)c4cc(C)oc4C)C2=NC(C(=O)OC)=C(C(=O)OC)[C@H]13`, the Potency was inconclusive: 29.1 µM [cytotoxic, single point].
With `COc1ccc(CSC(=S)NNc2ccccc2)cc1` the Potency was inconclusive: 29.1 µM [cytotoxic, single point].
With `CC1CCCN(CCOCCOc2ccc(Br)cc2Cl)C1` (stereo not drawn) the Potency was inconclusive: 29.1 µM [cytotoxic, single point].
For `CCCN1CCN(C(=O)C2CCN(c3nnc(C)c4c(C)n(-c5ccc(C)cc5)nc34)CC2)CC1`, the Potency was inconclusive: 29.1 µM [cytotoxic, single point].
In the case of `COc1ccc2nc(NCCO)[nH]c2c1`, the “activity change, negative = cytotoxic” value is reported as inactive: 0.76%.
With `CCOc1ccc(CN(C)C(=O)NNC(=O)c2ccc(C)cc2)cc1OC` the Potency was inconclusive: 25.9 µM [rising, single point].
For `CC(=O)c1ccc(N2CCN(S(=O)(=O)c3ccc4c(c3)CC(C)N4C(=O)C3CC3)CC2)cc1` (stereo not drawn), the Potency was inconclusive: 9.2 µM [cytotoxic, partial curve, poor fit].
With `O=C(NCc1ccco1)c1nc2c(nnn2Cc2ccccc2Cl)c(=O)[nH]1` the Potency was inconclusive: 18.4 µM [cytotoxic, single point].
In the case of `Clc1ccc(CCNc2nc3ccccc3s2)cc1`, the “activity change, negative = cytotoxic” value is reported as inactive: -5.71%.
In the case of `Cn1c(=O)c2c(ncn2CCOc2cccc(Br)c2)n(C)c1=O`, the Potency is reported as active: 10.3 µM.
For `CCc1ccc(O)c(-c2cc(C(=O)Nc3cccnc3)[nH]n2)c1`, the activity change, negative = cytotoxic was inconclusive: -0.248%.
With `COc1cc(NC(=O)COc2ccc(Cl)cc2)ccc1-c1cc2ccccc2oc1=O` the Potency was inconclusive: 29.1 µM [cytotoxic, single point].
In the case of `Cc1ccc(CN(C)C(=O)c2cccc(S(=O)(=O)N3CCN(c4ccccc4)CC3)c2)cc1`, the Potency is reported as inconclusive: 18.4 µM [cytotoxic, single point].
For `CCCn1c(N)c(C(=O)CSc2nc(N)cc(=O)[nH]2)c(=O)n(C)c1=O`, the activity change, negative = cytotoxic was inconclusive: 31.4%.
With `CNC(=O)Cn1cc(S(=O)(=O)Cc2ccccc2F)c2ccccc21` the “activity change, negative = cytotoxic” value was inactive: 21.5%.
In the case of `CC(C)(C)C(=O)Nc1nc(=S)ss1`, the Potency is reported as inconclusive: 18.4 µM [cytotoxic, single point].
In the case of `COc1cc(OC)c2c(c1)C(=O)OC2c1cc(OC)c(OC)cc1C` (stereo not drawn), the “activity change, negative = cytotoxic” value is reported as inactive: 16.7%.
For `CCCCCSc1nc2sc3c(c2c(=O)n1-c1ccccc1)CCN(C(C)=O)C3`, the Potency was inconclusive: 18.4 µM [cytotoxic, single point].
In the case of `CN(C(=O)CCl)C1CCCc2ccccc21` (stereo not drawn), the Potency is reported as active: 5.8 µM.
With `COc1ccc(-n2nnnc2SCC(=O)N2CCN(C(=O)c3ccco3)CC2)cc1OC` the Potency was inconclusive: 29.1 µM [rising, single point].
For `COc1ccc(-c2oc3cccnc3c2C#CC2(O)CCCCC2)cc1`, the “activity change, negative = cytotoxic” value was inactive: -6.15%.
In the case of `CCC(=O)N1N=C(c2ccc(C)cc2)CC1c1ccco1` (stereo not drawn), the “activity change, negative = cytotoxic” value is reported as inactive: 1.26%.
For `COc1ccc(-c2c[n+]3c(n2-c2ccc(C)cc2)CCCCC3)cc1`, the Potency was active: 1.84 µM.
For `Cc1ccc(N(C)S(=O)(=O)c2cccc(C(=O)Nc3nc4ccccc4[nH]3)c2)cc1`, the Potency was inconclusive: 18.4 µM [cytotoxic, single point].
With `Cc1ccc(Cn2c(SCc3ccc(C(=O)N4CCCCCC4)cc3)nc3ccncc32)cc1` the Potency was inconclusive: 9.2 µM [cytotoxic, partial curve].
For `O=C(COC(=O)CNC(=O)c1ccc(Cl)cc1)Nc1ncc(C(F)(F)F)cc1Cl`, the Potency was inconclusive: 18.4 µM [rising, single point].
With `C=CCn1nc([N+](=O)[O-])nc1Sc1cccc2cccnc12` the Potency was inconclusive: 20.6 µM [cytotoxic, single point].
In the case of `CCCCc1nc(NCCNC(=O)c2ccccc2)c(C#N)c2c1CSC(C)(C)C2`, the “activity change, negative = cytotoxic” value is reported as inactive: -16.3%.
With `COc1cccc(NC(=O)N2CCN3CCCCC3C2)c1` (stereo not drawn) the “activity change, negative = cytotoxic” value was inactive: 1.14%.
In the case of `O=C(NCc1c(O)ccc2ccccc12)c1ccccc1`, the Potency is reported as inconclusive: 29.1 µM [cytotoxic, single point].
In the case of `CNc1c2cccc(C)c2nc2c(C(=O)NCCN(C)C)cccc12`, the Potency is reported as active: 0.291 µM.
In the case of `COc1ccc(-c2cc(C(C)=O)c(C)n2CCC(=O)Nc2ccc(C)c(Cl)c2)cc1`, the “activity change, negative = cytotoxic” value is reported as inactive: 9.67%.
For `COC(=O)Cc1c(C)c2ccc(OC(C)C)cc2oc1=O`, the Potency was inconclusive: 29.1 µM [cytotoxic, single point].
In the case of `CC(C)n1c(O)c(N=NC(=O)Cn2ccc(C(F)(F)F)n2)c2ccccc21`, the Potency is reported as inconclusive: 29.1 µM [cytotoxic, single point].
In the case of `O=c1cc(CSc2ccccc2)[nH]c2ccc(F)cc12`, the “activity change, negative = cytotoxic” value is reported as inactive: -14.4%.
With `COc1cccc(NC(=O)N(C)C[C@H]2Oc3ncc(Br)cc3C(=O)N([C@H](C)CO)C[C@H]2C)c1` the “activity change, negative = cytotoxic” value was inactive: 15.6%.
For `O=C(COc1ccc(F)cc1)Nc1ccc(S(=O)(=O)N(Cc2ccccc2)c2ccccc2)cc1`, the Potency was inconclusive: 29.1 µM [cytotoxic, single point].
With `COc1ccc([C@H]2C[C@@H](n3cc(-c4ccc(F)cc4)nn3)[C@H](O)CN2CC2CCCCC2)cc1` the Potency was inconclusive: 23.1 µM [cytotoxic, single point].
With `CCC(C)[C@H](NC(=O)[C@@H]1CSC2c3ccccc3C(=O)N21)C(=O)NCc1ccncc1` (stereo partly drawn) the “activity change, negative = cytotoxic” value was inactive: 18.4%.
For `Cc1c(Cc2ccc3c(c2)OCO3)sc(NC(=O)c2ccccc2)c1C(N)=O`, the Potency was inconclusive: 29.1 µM [cytotoxic, single point].
For `Cc1cccc(NC(=O)c2ccc(Cl)c(S(=O)(=O)N3CCc4ccccc43)c2)n1`, the Potency was inconclusive: 16.4 µM [cytotoxic, partial curve].
With `CCCOc1ccc(C(=O)Nc2ccc(-c3cc4ccccc4oc3=O)c(C)c2)cc1` the Potency was active: 10.3 µM.
With `Cc1ccc(C(=O)N2C(=O)c3cccc(N)c3C2=O)o1` the “activity change, negative = cytotoxic” value was inactive: -0.115%.
In the case of `COc1cccc(CN2C(=NC(=O)C3CC3)SC3CS(=O)(=O)CC32)c1` (stereo not drawn), the “activity change, negative = cytotoxic” value is reported as inactive: 19.9%.
With `O=C(c1ccc2c(c1)N(Cc1cccc(Cl)c1)C(=O)c1ccccc1S2(=O)=O)N1CCN(c2ccccn2)CC1` the Potency was inconclusive: 29.1 µM [cytotoxic, partial curve, poor fit].
In the case of `CCOC(=O)[C@]12CCCC=C1N(Cc1ccc3c(c1)OCO3)C(=O)[C@H](CC(=O)N1CCN(C(=O)C3CC3)CC1)C2`, the “activity change, negative = cytotoxic” value is reported as inactive: 19.7%.
With `COc1ccc(C(=O)C2CCN(C(=O)c3ccc(OC)cc3)CC2)cc1` the Potency was inconclusive: 11.6 µM [cytotoxic, partial curve].
In the case of `NNC(=S)Nc1cccc(Cl)c1`, the “activity change, negative = cytotoxic” value is reported as inactive: 12.7%.
With `NC(=O)C1CCN(c2ncc(-c3ccc4c(c3)OCCCO4)s2)CC1` the Potency was inconclusive: 8.2 µM [rising, partial curve, poor fit].
In the case of `CC1C(=O)N(Cc2ccccc2F)c2ccccc2N1C(=O)c1c(F)cccc1F` (stereo not drawn), the Potency is reported as inconclusive: 16.4 µM [cytotoxic, single point].
With `CC12CCC3c4ccc(O)c([N+](=O)[O-])c4CCC3C1CCC2=O` (stereo not drawn) the Potency was inconclusive: 14.6 µM [cytotoxic, partial curve, poor fit].
